US20240423474A1, “SYSTEM AND METHOD FOR INTRAOPERATIVE LIFETIME IMAGING” (The General Hospital Corporation, priority 2021, published 2024)

Key:
Format in all cases: in vivo, human
sarcoma tumors = test: ROC tumor versus normal classification in specimens of sarcoma patients; conditions: 10 sarcoma patients, FIG. 17A
head and neck cancers = test: ROC tumor versus normal classification in specimens of head and neck cancer patients; conditions: 8 head and neck cancer patients, FIG. 17B
OSCC tumors [1] = test: Confocal FLIM of OSCC tissue sections from patients injected with panitumumab-IRDye800CW
OSCC tumors [2] = test: Widefield TD and spectral imaging of OSCC tissue block, ROC tumor/normal classification; conditions: FIG. 14K

| Molecule | accuracy (AUC), FLT based tumor versus normal classification (sarcoma tumors) | accuracy (AUC), intensity based tumor versus normal classification (sarcoma tumors) | accuracy (AUC), FLT based tumor vs normal classification (head and neck cancers) | accuracy (AUC), intensity based tumor vs normal classification (head and neck cancers) | FLT in tumor front (OSCC tumors [1]; FIG. 12A, OSCC specimen, injected 48 hours prior to surgery) | FLT in muscle (OSCC tumors [1]; FIG. 12A, normal tissue) | FLT in salivary gland (OSCC tumors [1]; FIG. 12A, normal tissue) | muscle FLT (OSCC tumors [1]; FIG. 12C) | average FLT of OSCC cell clusters (OSCC tumors [1]; FIG. 12C, three cell clusters) | average FLT in representative tumor ROI (OSCC tumors [1]; FIG. 13C, high EGFR expressing) | average FLT in representative muscle ROI (OSCC tumors [1]; FIG. 13C, low EGFR expressing) | average FLT in representative salivary gland ROI (OSCC tumors [1]; FIG. 13C, moderate EGFR expressing) | AUC, spectral unmixing classification (OSCC tumors [2]) | AUC, intensity-based classification (OSCC tumors [2]; widefield) |
| --- | --- | --- | --- | --- | --- | --- | --- | --- | --- | --- | --- | --- | --- | --- |
| CC1(C)C(/C=C/C=C/C=C/C=C2\N(CCCCS(=O)(=O)O)c3ccc4ccccc4c3C2(C)C)=[N+](CCCCS(=O)(=O)[O-])c2ccc3ccccc3c21 [ICG, indocyanine green] | 0.96 | 0.56 | 0.96 | 0.61 | – | – | – | – | – | – | – | – | – | – |
| panitumumab-IRDye800CW: conjugate of the FDA approved therapeutic antibody for the epidermal growth factor receptor (EGFR), panitumumab, with IRdye800CW, an NIR dye | – | – | – | – | 0.9-1 ns | 0.5 ns | 0.7 ns | 0.5 ns | 0.96 ns | 0.88 ns | 0.4 ns | 0.5 ns | 0.58 | 0.32 |

Some results come without the dose or concentration used. Where no unit stands, none is given here, and values compare only within one read-out.
